PubChem BioAssay AID602196 – INSERM – 2012

Screen: 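Modifiers of cisplatin sensitivity in A549 cells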
Cells: human A549 lung cancer cells
Reagents: siRNA pair against human genes
Time to read-out: 48 h transfection before cisplatin; time from cisplatin to read-out not stated
Conditions: cisplatin at a dose killing half of control-siRNA cells; exact dose and duration not given
Detection: 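Shift in cisplatin death relative to control siRNA, from -50 (all cells die) to +50 (no cells die); siRNAs harmful on their own scored 0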
Reading the numbers: two-siRNA summed score (-2 to +2): higher = both siRNAs protect from cisplatin killing; -2 means both sensitise
Call rule: 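Each siRNA scores 0 if harmful alone by LDH or WST-1, otherwise +1 if it reduces and -1 if it increases cisplatin killing; a gene is active when both siRNAs agree (sum +2 or -2)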
Meaning of the calls: active = both siRNAs shift cisplatin killing the same way; inactive = no consistent shift, or siRNA harmful alone
Here is a random part of about 23,000 reagents tested. Of all reagents, 455 (2%) were called active. 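Active includes both protection and sensitisation; some change values fall well beyond the stated -50 to +50 range.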 Unmarked entries are inactive. Further read-outs or replicates are left out here. Not stated in the record: the amount of reagent.

KHDRBS3 gave two-siRNA summed score (-2 to +2) = 1.
With knock-down of SCML2 the results were two-siRNA summed score (-2 to +2) = 0.
RHOU showed two-siRNA summed score (-2 to +2) = 0.
APOBEC3H scored two-siRNA summed score (-2 to +2) = 0.
After knock-down of PDGFRL, the screen gave two-siRNA summed score (-2 to +2) = 0.
Knock-down of SERPINA10 resulted in: two-siRNA summed score (-2 to +2) = -1.
ZNF747 showed two-siRNA summed score (-2 to +2) = 0.
ILDR2 showed two-siRNA summed score (-2 to +2) = 1.
NXPH3 scored two-siRNA summed score (-2 to +2) = 1.
With knock-down of OR52A4P the results were two-siRNA summed score (-2 to +2) = 0.

Reprinted from above, 2 entries:
KHDRBS3: two-siRNA summed score (-2 to +2) = 1
SCML2: two-siRNA summed score (-2 to +2) = 0

More entries:
RPS9 showed two-siRNA summed score (-2 to +2) = 0.
AMER1 showed two-siRNA summed score (-2 to +2) = -1.
SMAD3 gave two-siRNA summed score (-2 to +2) = 0.
After knock-down of LOC387771 the results were two-siRNA summed score (-2 to +2) = 1.
Depletion of AIP gave: two-siRNA summed score (-2 to +2) = -1.
Knock-down of CT45A5 gave: two-siRNA summed score (-2 to +2) = 0.
After knock-down of ST6GALNAC3, the record shows two-siRNA summed score (-2 to +2) = 1.
After knock-down of TNFRSF12A, the record shows two-siRNA summed score (-2 to +2) = 0.
VWCE scored two-siRNA summed score (-2 to +2) = 0.
CTSB showed two-siRNA summed score (-2 to +2) = 0.
With knock-down of TMPRSS13 the results were two-siRNA summed score (-2 to +2) = 0.
